Test results from article PMC2737637.
Positions count from the first letter of the chain named. Read-outs that look alike come from different tables or passages of the source. These are yes or no findings as the source states them, for the method shown. Binding seen in cells or lysates may run through a third protein. Some entries that bind do so weakly or less than the wild type. For some assays here: Where a sequence is shown, tags or fusion partners need not be part of it. One block for each molecule: values may come before it.

The chains behind the UniProt entries cited, without tags or fusion partners.
UniProt Q06413: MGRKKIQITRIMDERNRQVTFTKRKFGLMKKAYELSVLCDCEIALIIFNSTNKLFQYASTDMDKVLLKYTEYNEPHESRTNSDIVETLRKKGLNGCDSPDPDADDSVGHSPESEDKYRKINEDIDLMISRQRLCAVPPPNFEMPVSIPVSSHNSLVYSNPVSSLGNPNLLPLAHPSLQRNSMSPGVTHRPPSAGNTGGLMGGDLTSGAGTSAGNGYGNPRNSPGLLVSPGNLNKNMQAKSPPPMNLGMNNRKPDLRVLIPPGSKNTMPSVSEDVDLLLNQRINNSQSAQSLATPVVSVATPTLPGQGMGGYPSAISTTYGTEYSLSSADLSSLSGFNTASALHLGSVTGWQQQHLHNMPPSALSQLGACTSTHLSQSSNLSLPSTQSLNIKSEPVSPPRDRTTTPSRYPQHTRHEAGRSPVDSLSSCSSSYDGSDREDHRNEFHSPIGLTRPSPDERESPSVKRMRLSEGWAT
UniProt Q8CFN5: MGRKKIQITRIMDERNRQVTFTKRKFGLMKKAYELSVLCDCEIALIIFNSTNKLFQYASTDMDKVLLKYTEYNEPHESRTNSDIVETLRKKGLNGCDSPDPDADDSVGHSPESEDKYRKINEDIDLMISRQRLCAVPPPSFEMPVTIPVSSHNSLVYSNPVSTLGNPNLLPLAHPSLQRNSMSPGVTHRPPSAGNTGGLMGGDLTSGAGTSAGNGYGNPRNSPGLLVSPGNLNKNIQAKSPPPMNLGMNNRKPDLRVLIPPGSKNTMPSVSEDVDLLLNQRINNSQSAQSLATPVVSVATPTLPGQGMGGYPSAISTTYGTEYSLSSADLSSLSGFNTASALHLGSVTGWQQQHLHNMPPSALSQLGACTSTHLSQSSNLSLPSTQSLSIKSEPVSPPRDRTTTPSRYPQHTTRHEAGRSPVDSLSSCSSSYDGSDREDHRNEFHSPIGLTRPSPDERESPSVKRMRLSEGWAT

Key:
V5-lipin-1α-2KR [1] = target: T1, V5-lipin-1α-2KR (UniProt Q91ZP3); test: co-IP; HEK293A cells co-transfected, harvested after 48 h; lysis buffer 50 mM Tris pH 7.5, 250 mM NaCl, 1 mM EDTA, 1 mM EGTA, 0.5% Triton X-100, 10% glycerol; immunoprecipitation with anti-V5 agarose, five washes with lysis buffer; immunoblotting with anti-Gal4 or anti-Myc antibody
T1 sequence: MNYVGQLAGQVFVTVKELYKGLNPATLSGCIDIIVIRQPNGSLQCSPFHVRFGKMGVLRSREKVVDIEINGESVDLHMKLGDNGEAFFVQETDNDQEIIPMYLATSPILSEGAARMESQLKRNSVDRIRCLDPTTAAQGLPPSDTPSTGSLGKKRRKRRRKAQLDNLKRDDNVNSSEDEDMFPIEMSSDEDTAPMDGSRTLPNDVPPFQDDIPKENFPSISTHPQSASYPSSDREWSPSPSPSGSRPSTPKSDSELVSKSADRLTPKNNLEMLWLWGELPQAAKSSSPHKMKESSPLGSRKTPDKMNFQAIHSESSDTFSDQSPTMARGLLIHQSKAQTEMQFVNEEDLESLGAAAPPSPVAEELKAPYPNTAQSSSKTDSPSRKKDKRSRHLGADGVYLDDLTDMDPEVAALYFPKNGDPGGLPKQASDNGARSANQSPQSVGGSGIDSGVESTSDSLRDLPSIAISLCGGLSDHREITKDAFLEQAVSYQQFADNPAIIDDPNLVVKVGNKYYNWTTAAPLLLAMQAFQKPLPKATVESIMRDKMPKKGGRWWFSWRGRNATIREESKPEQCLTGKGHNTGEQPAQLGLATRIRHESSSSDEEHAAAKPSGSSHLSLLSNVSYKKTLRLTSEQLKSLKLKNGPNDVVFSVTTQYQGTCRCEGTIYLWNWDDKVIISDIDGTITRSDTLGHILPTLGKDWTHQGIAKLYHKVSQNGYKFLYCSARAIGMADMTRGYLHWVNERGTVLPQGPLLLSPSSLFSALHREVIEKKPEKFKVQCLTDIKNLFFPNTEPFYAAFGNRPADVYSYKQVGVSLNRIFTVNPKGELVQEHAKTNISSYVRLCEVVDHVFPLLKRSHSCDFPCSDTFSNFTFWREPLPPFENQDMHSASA

V5-lipin-1α [2] = target: T2, V5-lipin-1α (UniProt Q91ZP3); test: as above
T2 sequence: T1 sequence with R566K, R596K

[3] = target: T3, lipin-1α (endogenous lipin-1 of mouse brain extract) (mouse (endogenous in mouse brain)) (UniProt Q91ZP3); test: co-IP; mouse brain extract immunoprecipitated with anti-lipin-1 antibody or a control IgG; MEF2C in the immunoprecipitates detected by immunoblotting
T3 sequence: T1 sequence with R566K, R596K

V5-lipin-1α-2KR [4] = target: T1, V5-lipin-1α-2KR; test: co-IP; HEK293A cells co-transfected, harvested after 48 h; lysis buffer 50 mM Tris pH 7.5, 250 mM NaCl, 1 mM EDTA, 1 mM EGTA, 0.5% Triton X-100, 10% glycerol; immunoprecipitation with anti-V5 agarose, five washes with lysis buffer; immunoblotting with anti-Gal4 or anti-Myc antibody; remark: listed apart in the source
V5-lipin-1α [5] = target: T2, V5-lipin-1α; test: as above; remark: listed apart in the source

- binding (V5-lipin-1α-2KR [1]): binds
- binding (V5-lipin-1α [2]): binds
Molecule: Gal4-MEF2C (from UniProt Q06413 1-473)

- binding [3]: binds
Molecule: endogenous MEF2C (mouse brain extract) (from UniProt Q8CFN5 1-474)

- binding (V5-lipin-1α-2KR [4]): binds
- binding (V5-lipin-1α [5]): binds
B1: Myc-PGC-1α (protein, UniProt O70343 1-797)
chain: MAWDMCSQDSVWSDIECAALVGEDQPLCPDLPELDLSELDVNDLDTDSFLGGLKWCSDQSEIISNQYNNEPANIFEKIDEENEANLLAVLTETLDSLPVDEDGLPSFDALTDGAVTTDNEASPSSMPDGTPPPQEAEEPSLLKKLLLAPANTQLSYNECSGLSTQNHAANHTHRIRTNPAIVKTENSWSNKAKSICQQQKPQRRPCSELLKYLTTNDDPPHTKPTENRNSSRDKCASKKKSHTQPQSQHAQAKPTTLSLPLTPESPNDPKGSPFENKTIERTLSVELSGTAGLTPPTTPPHKANQDNPFKASPKLKPSCKTVVPPPTKRARYSECSGTQGSHSTKKGPEQSELYAQLSKSSGLSRGHEERKTKRPSLRLFGDHDYCQSLNSKTDILINISQELQDSRQLDFKDASCDWQGHICSSTDSGQCYLRETLEASKQVSPCSTRKQLQDQEIRAELNKHFGHPCQAVFDDKSDKTSELRDGDFSNEQFSKLPVFINSGLAMDGLFDDSEDESDKLSYPWDGTQPYSLFDVSPSCSSFNSPCRDSVSPPKSLFSQRPQRMRSRSRSFSRHRSCSRSPYSRSRSRSPGSRSSSRSCYYYESSHYRHRTHRNSPLYVRSRSRSPYSRRPRYDSYEAYEHERLKRDEYRKEHEKRESERAKQRERQKQKAIEERRVIYVGKIRPDTTRTELRDRFEVFGEIEECTVNLRDDGDSYGFITYRYTCDAFAALENGYTLRRSNETDFELYFCGRKQFFKSNYADLDTNSDDFDPASTKSKYDSLDFDSLLKEAQRSLRR
